Measured values taken from paper doi:10.1101/2022.11.08.515201.
No constants are given. Whether binding was seen depends on the method and setting. In cells and extracts the contact can be indirect. A result given as binding can be weak or reduced; the word gives no strength. Tags and fused reporters may be left off the sequences shown.

Amino acid sequences for entries named in this document (tags omitted). A change or cut given only in a name is not applied to a line headed by its entry.
UniProt Q9P2E2: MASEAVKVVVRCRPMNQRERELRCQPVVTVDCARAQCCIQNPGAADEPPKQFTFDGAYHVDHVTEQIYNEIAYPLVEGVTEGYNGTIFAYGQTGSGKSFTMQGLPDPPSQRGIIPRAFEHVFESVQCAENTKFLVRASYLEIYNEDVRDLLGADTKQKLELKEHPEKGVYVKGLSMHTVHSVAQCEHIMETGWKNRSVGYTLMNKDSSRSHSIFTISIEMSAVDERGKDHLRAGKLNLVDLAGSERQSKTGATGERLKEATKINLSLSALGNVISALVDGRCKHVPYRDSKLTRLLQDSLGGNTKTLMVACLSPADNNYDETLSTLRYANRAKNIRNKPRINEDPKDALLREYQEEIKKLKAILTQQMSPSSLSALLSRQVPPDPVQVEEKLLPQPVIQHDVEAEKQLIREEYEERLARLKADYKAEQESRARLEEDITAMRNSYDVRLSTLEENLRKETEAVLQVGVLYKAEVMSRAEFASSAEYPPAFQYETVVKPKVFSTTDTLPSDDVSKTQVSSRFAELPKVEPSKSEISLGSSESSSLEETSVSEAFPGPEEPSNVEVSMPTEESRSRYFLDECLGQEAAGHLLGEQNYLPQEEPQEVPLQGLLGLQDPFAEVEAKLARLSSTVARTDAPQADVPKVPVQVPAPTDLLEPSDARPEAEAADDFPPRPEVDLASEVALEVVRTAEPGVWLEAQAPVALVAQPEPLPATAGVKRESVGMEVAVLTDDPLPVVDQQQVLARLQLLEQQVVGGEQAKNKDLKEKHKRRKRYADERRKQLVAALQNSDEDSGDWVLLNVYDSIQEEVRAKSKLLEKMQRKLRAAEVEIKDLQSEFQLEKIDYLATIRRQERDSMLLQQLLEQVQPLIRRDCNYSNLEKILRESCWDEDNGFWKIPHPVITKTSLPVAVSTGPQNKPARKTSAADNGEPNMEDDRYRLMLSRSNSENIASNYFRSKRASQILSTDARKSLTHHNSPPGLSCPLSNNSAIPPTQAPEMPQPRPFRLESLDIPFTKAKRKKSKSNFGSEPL

Molecular target: T1, myc-ERR1 (estrogen related receptor alpha) (UniProt P11474)
T1 sequence: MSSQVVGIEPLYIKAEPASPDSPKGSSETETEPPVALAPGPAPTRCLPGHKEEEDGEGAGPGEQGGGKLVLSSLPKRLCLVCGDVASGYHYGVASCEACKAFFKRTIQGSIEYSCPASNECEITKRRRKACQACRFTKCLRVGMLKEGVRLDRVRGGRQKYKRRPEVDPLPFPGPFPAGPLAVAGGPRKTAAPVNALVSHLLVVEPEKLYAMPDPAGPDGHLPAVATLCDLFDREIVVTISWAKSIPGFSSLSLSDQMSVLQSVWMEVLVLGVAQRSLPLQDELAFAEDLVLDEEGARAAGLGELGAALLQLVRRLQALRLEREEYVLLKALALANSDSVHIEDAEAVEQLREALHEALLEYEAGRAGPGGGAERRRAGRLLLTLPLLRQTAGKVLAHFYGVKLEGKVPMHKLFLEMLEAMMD
Experiment: co-IP

Row | binding | Substance
1 | binds | GFP-KIF1B-NR1 (KIF1B fragment containing nuclear receptor box motif 1) (human) (domain or fragment)
2 | binds | GFP-KIF17-T (NR box-containing KIF17 tail domain) (from UniProt Q9P2E2) (domain or fragment)
